No constants are given. Whether binding was seen depends on the method and setting. Binding calls can cover weak binding; strength is not graded here. Where a sequence is shown, tags or fusion partners need not be part of it.
Molecular target: T1, MBP-GW2 (maltose-binding protein fused with grain width 2) (rice (Oryza sativa L.)) (UniProt B9F4Q9)
T1 sequence: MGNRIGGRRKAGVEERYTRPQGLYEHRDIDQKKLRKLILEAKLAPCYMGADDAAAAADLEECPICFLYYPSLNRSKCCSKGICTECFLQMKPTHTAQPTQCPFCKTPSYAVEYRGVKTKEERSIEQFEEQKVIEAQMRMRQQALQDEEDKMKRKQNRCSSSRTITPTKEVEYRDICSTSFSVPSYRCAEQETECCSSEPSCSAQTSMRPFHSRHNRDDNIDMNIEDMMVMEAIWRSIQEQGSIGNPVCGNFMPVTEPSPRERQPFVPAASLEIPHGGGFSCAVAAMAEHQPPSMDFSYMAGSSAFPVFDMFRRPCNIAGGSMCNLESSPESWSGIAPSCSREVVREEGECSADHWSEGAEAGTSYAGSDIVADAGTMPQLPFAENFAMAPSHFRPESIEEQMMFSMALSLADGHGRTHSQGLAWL
Test: pull-down; 2 µg MBP-GW2 mixed with 2 µg GST fusion protein; 50 mM Tris-HCl pH 7.5, 100 mM NaCl, 1% Triton X-100, 0.2% glycerol, 0.5 mM 2-mercaptoethanol; 25 °C, 2 h; captured on amylose resin, washed five times; GST fusions detected by anti-GST immunoblot; both purified

Row | binding | Substance
1 | binds | GST-CHT14 (glutathione S-transferase fused with chitinase 14) (rice (Oryza sativa L.)) (enzyme)
2 | binds | GST-PGK (glutathione S-transferase fused with phosphoglycerate kinase) (rice (Oryza sativa L.)) (enzyme)

Row | Substance | binding
3 | GST-GAPDH (glutathione S-transferase fused with glyceraldehyde 3-phosphate dehydrogenase) (rice (Oryza sativa L.)) (enzyme) | no binding (tested: 2 µg of MBP-GW2 with 2 µg of GST-GAPDH)
